The values below come from PubChem BioAssay AID493014 (National Center for Advancing Translational Sciences (NCATS), 2011).

A short description of the assay: qHTS Assay to Find Inhibitors of Chronic Active B-Cell Receptor Signaling. Particulars: ABC-DLBCL IkBa-CBG/CBR reporter, luminescence ratio (green luciferase fused to IkBa over red control in TMD8 lymphoma cells), 4 h. Summed up: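 TMD8 human ABC-DLBCL cells with doxycycline-inducible IκBα–green luciferase fusion and unfused red luciferase, in 0.5% FBS medium; compounds up to 46 uM, 4 h at 37C. Green/red luminescence ratio, filter-overlap corrected, fitted to concentration-response curves.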
Background: Quantitative high-throughput screening tests each substance at several concentrations.

The mark [1] stands for this setting: measured here: CBR red luminescence, cell number.
[2] abbreviates: measured here: IkBa-CBG green luminescence.

The list shows a part of the results. The main result of the screen is listed elsewhere. These columns were measured beside it and carry no call. Most of these compounds were active or inconclusive in the main read-out, so they are no random draw. Words in brackets tell the shape of the fitted curve; partial curves, single points and poor fits give uncertain potencies.

The term AC50 denotes the midpoint of the concentration-response curve, whichever way the signal moves. `CCNC(=O)CC1C(=O)N(c2cccc(OC)c2)C(=O)N1CCOC` (centres undefined): the AC50 under setting [1] is 29.1 µM [rising, single point].
Turning to `S=c1nc2ccccc2c2nc(-c3ccccc3Cl)[nH]n12`, the concentration at half-maximal activity (AC50) under setting [2] was 0.501 µM [falling, partial curve, poor fit].
As to `Cc1ccnc(NC(=O)CSc2ccc3c(c2)OCCO3)c1`, under setting [1], the AC50 was 18.4 µM [falling, single point].
In the case of `O=[N+]([O-])c1cccc(-n2cc3ccc([N+](=O)[O-])cc3n2)c1`, the half-maximal activity concentration (AC50) under setting [1] is 0.164 µM [rising, full curve, poor fit].
Still for that read-out and setting: under `COC(=O)C1(C)Cc2cc(OC(C)=O)c(OC(C)=O)cc2N1` (centres undefined) stands 11.2 µM [falling, partial curve, poor fit]; under `CC(OC(=O)c1cccc(-n2cnnn2)c1)C(=O)N(C)c1ccccc1` (centres undefined), 3.98 µM [rising, single point].
Regarding `CCN(CC(=O)N(CC(C)C)c1c(N)n(CC(C)C)c(=O)[nH]c1=O)Cc1nc2ccccc2c(=O)[nH]1`, the AC50 under setting [1] is 35.5 µM [rising, single point].
On the same count and under the same terms, in the case of `O=C(Nc1cccc(NC(=O)c2ccccc2Cl)c1)c1ccc([N+](=O)[O-])o1` it was 22.4 µM [falling, single point]; in that of `O=C1NCCCC2c3cc(O)c4ccccc4c3OC12N1CCCCC1` (centres undefined), 35.5 µM [falling, single point]; in that of `CCOC(=O)c1c(C)oc2cc(Cl)c(O)c(CN(C)C)c12`, 12.6 µM [rising, partial curve].
Same read-out and setting: under `Cc1cc(NC(=O)NC(=O)c2ccccc2F)no1` stands 15.8 µM [falling, partial curve, poor fit].
For `CN(CC(=O)Nc1ccc(Cl)c(C(F)(F)F)c1)C(=O)/C=C/c1cccs1`, the concentration at half-maximal activity (AC50) under setting [1] was 20.6 µM [rising, single point].
Still for that read-out and setting: under `CC1(C)Cc2ccccc2C(C(Cc2ccccc2)C(N)=O)=N1` (centres undefined) stands 0.631 µM [rising, partial curve, poor fit].
For the molecule `CCS(=O)(=O)c1ccc(-c2cccc(NC(=O)c3ccco3)c2)nn1`, under setting [1], the concentration at half-maximal activity (AC50) is 6.51 µM [falling, single point].
For the molecule `CC1(C)Cc2c(sc3nc(-c4ccccc4)oc(=O)c23)CO1`, the half-maximal activity concentration (AC50) under setting [1] was 0.291 µM [falling, full curve].
Still for that read-out and setting: in the case of `COc1ccc(NC(=O)C/C(C)=N/NC(=O)c2ccco2)c([N+](=O)[O-])c1` it was 35.5 µM [falling, partial curve, poor fit]; in that of `O=C(Nc1ccccc1)C1=C[C@H](c2ccc3c(c2)OCO3)C[C@H](OCc2ccc(CO)cc2)O1`, 25.1 µM [falling, single point]; in that of `NC(=O)c1ccccc1NC(=O)CCc1ccccc1`, 4.47 µM [falling, partial curve].
Still for that read-out and setting: in the case of `CCN(CC(=O)Nc1ccc(OC)cc1)C(=O)c1cc([N+](=O)[O-])ccc1N1CCOCC1` it was 6.51 µM [rising, partial curve, poor fit]; in that of `N#Cc1cccnc1N1CCN(C(=O)c2cccc3c2C(=O)c2ccc(Cl)cc2S3(=O)=O)CC1`, 6.51 µM [rising, single point].
On the same count and under the same terms, in the case of `O=C(Nc1nccs1)C1CCN(S(=O)(=O)c2ccc3c(c2)OCCCO3)CC1` it was 3.55 µM [falling, partial curve, poor fit]; in that of `CN1CCN(CC(=O)N2CCn3c4c(c5cc(C6CCCCC6)ccc53)CCCC42)CC1` (centres undefined), 6.51 µM [rising, partial curve, poor fit]; in that of `N#C/C(=C\c1cccnc1)c1ccc(Br)cc1`, 0.501 µM [rising, full curve, poor fit].
For the molecule `COc1cccc(OC)c1C(=O)Nc1c(C(=O)N2CCN(c3ccccn3)CC2)oc2ccccc12`, the AC50 under setting [1] was 3.55 µM [rising, single point].
As for `CC(C)C(=O)N/N=C/c1ccc(OCc2ccccc2)cc1`, the concentration at half-maximal activity (AC50) under setting [1] was 2.82 µM [rising, full curve, poor fit].
Still for that read-out and setting: in the case of `O=C(NCc1cccs1)C1CC(c2ccccc2O)=NO1` (centres undefined) it was 14.6 µM [falling, partial curve]; in that of `C=CCOc1ccc(/C=C2\SC(=S)N(CCC(=O)O)C2=O)cc1`, 0.447 µM [falling, full curve, poor fit]; in that of `CCOc1ccccc1NC(=O)/C(C#N)=C/c1cccnc1`, 20 µM [falling, partial curve, poor fit].
On the same count and under the same terms, under `O=C(CNC(=O)Cn1ccc2ccccc2c1=O)NCCCN1CCCCCC1` stands 18.4 µM [rising, partial curve].
As to `Cc1ccc(NC(=O)CSc2nnc(CCC(=O)O)c(=O)[nH]2)cc1`, the AC50 under setting [1] is 6.31 µM [falling, partial curve].
Regarding `COc1ccc2nc(C(F)(F)Cl)c(C#N)c(N)c2c1`, under setting [2], the AC50 is 1.26 µM [rising, full curve, poor fit].
With `CC(=O)C1=NN(c2ccc(Cl)cc2)C(c2ccc3c(c2)OCO3)N(C(C)=O)N1C` (centres undefined), under setting [1], the half-maximal activity concentration (AC50) is 35.5 µM [falling, single point].
Still for that read-out and setting: in the case of `CC1=NN(C(=O)c2ccccc2Cl)C(O)(c2cccnc2)C1` (centres undefined) it was 3.55 µM [falling, partial curve]; in that of `NNCCc1ccccc1`, 0.82 µM [rising, full curve, poor fit].
As for `Cn1c(=O)c2c(nc(SCC(=O)N3CCCCCC3)n2C)n(C)c1=O`, the AC50 under setting [1] was 2.91 µM [falling, full curve].
Regarding `C/C(=N\OCc1nc2ccccc2c(=O)n1/N=C/c1cc(C)cc([N+](=O)[O-])c1O)c1ccccc1`, the AC50 under setting [1] was 17.8 µM [falling, single point].
For the molecule `O=C(NC1CCCC1)c1cccc(Oc2ccccc2)c1`, the AC50 under setting [1] is 35.5 µM [rising, single point].
With `CC1(C)OC(c2ccccc2)=C/C(=C/C=Nc2ccccc2)O1`, the half-maximal activity concentration (AC50) under setting [1] was 4.61 µM [falling, partial curve, poor fit].
On the same count and under the same terms, in the case of `COc1ccc(OCc2n[nH]c(=S)n2-c2ccc(C)cc2)cc1` it was 35.5 µM [rising, single point].
Take `CC1=NN(c2ccccc2)C(=O)C1N=Nc1ccc(N)cc1` (centres undefined): the AC50 under setting [1] was 25.9 µM [rising, single point].
On the same count and under the same terms, under `O=C(CSc1ccc2nnc(-c3ccncc3)n2n1)NCC1CCCO1` (centres undefined) stands 35.5 µM [rising, single point]; under `COc1ccc(-c2csc(=NCCO)n2-c2ccccc2)cc1`, 0.1 µM [rising, full curve, poor fit]; under `O=C(N/N=C/c1ccccc1F)c1ccc(COc2ccccc2Cl)o1`, 10.3 µM [falling, partial curve, poor fit].
On the same count and under the same terms, in the case of `CC1(C)NC(=O)N(CC(=O)N2CCN(S(=O)(=O)c3ccccc3C(F)(F)F)CC2)C1=O` it was 16.4 µM [rising, partial curve, poor fit].
`CC(C)c1ccc(-c2nc(N3CCCC3)nc3n[nH]c(N)c23)cc1`: the AC50 under setting [1] is 3.26 µM [rising, single point].
On the same count and under the same terms, under `C[C@H](CO)N1C[C@H](C)[C@@H](CN(C)C(=O)Nc2ccc3c(c2)OCO3)Oc2ccc(NS(=O)(=O)c3ccc(F)cc3)cc2C1=O` stands 2.59 µM [rising, full curve, poor fit]; under `CN(Cc1cccs1)c1ncnc2sccc12`, 6.51 µM [falling, single point].
Consider `CCOc1ccccc1C(=O)Nc1cccc(-c2nnc(-c3ccccc3)o2)c1`, for which, under setting [1], the AC50 is 0.398 µM [rising, full curve, poor fit].
Same read-out and setting: under `CC(C)c1ccc(O)c(NC(=S)NC(=O)c2ccc3c(c2)OCO3)c1` stands 12.6 µM [falling, partial curve, poor fit]; under `O=C(NCCc1c[nH]c2ccccc12)c1cccc(Br)c1`, 12.6 µM [falling, single point].
Take `CN(C)N1C(N)=C(C#N)C(c2cccc3ccccc23)C2=C1CC(c1ccccc1)CC2=O` (centres undefined): the AC50 under setting [1] is 4.11 µM [falling, partial curve, poor fit].
The same measure, in the same setting: in the case of `CCCCN(C(=O)Nc1ccc(OCC)cc1)C1CCN(C(C)=O)CC1` it was 0.562 µM [rising, full curve, poor fit].
Still for that read-out and setting: under `O=C(NNC(=S)NC(=O)c1ccco1)c1ccc(F)cc1` stands 3.55 µM [falling, partial curve, poor fit]; under `CCOC(CCNC(=O)CCC(=O)Nc1ccc2nc(N3CCN(C)CC3)cc(C)c2c1)OCC`, 35.5 µM [falling, single point].
With `O=C(NNC(=S)Nc1ccc(F)cc1)c1cccc([N+](=O)[O-])c1`, the concentration at half-maximal activity (AC50) under setting [1] is 1.26 µM [rising, partial curve, poor fit].
As for `Cc1ccc(S(=O)(=O)CCC(=O)OCC(=O)Nc2ccc(N3CCOCC3)cc2)cc1`, the half-maximal activity concentration (AC50) under setting [1] was 8.2 µM [falling, partial curve, poor fit].
Take `c1ccc(-c2nnc(SCc3cn4ccsc4n3)o2)cc1`: the concentration at half-maximal activity (AC50) under setting [1] is 35.5 µM [falling, single point].
On to `COCCCNCCOCCOc1ccc(C)cc1[N+](=O)[O-]`, for which the AC50 under setting [1] was 22.4 µM [falling, single point].
Take `COc1cccc(NC(=O)C(NCC(C)(C)CN(C)C)c2ccccc2)c1` (centres undefined): under setting [1], the concentration at half-maximal activity (AC50) is 0.0231 µM [rising, full curve, poor fit].
The same measure, in the same setting: under `CCOC(=O)c1cc2cc(CC(=O)c3ccc(OCC)cc3O)ccc2o1` stands 2.31 µM [falling, full curve]; under `O=C(NCCC1=CCCCC1)c1ccc([N+](=O)[O-])cc1`, 2.59 µM [rising, partial curve]; under `CS(=O)(=O)Oc1ccc2c(c1)O/C(=C\c1cccnc1)C2=O`, 2.51 µM [rising, partial curve].
The same measure, in the same setting: in the case of `O=c1oc2ccccc2c(O)c1Cc1cc(Cl)c2cccnc2c1O` it was 0.562 µM [falling, full curve, poor fit]; in that of `O=C(OCCCc1cc2ccccc2c(=O)o1)c1ccc2c(c1)OCO2`, 25.9 µM [rising, single point].
